{
  "source": "the supplement of paper PMC7125110",
  "parents": {"B1": {"name": "glmS ribozyme (parent)", "chain": "AUAAAAGCGCCAGAACUACAGAAAUGUAGUUGACGAGGAGGAGGUUUAUCGAAUUUUCGGCGGAUGCCUCCAAA"}},
  "note": "± gives the standard error. The uncertainty is large for many entries.",
  "data": [
    {"variants_of": "B1", "test": "KM; higher = weaker cofactor use; RNA array", "conditions": "with glucosamine-6-phosphate", "outline": "(§1)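 Tiles of sequenced MiSeq chips were imaged over ~14 h at 37 °C. On them, barcoded ribozyme variants had been transcribed in situ by E. coli RNA polymerase and were tracked via a hybridised Cy3 probe while glucosamine-6-phosphate (40 μM to 10 mM) in HEPES/KCl/Mg(OAc)2 buffer flowed in. Per-tile medians, normalised to baseline and to non-cleaving reference variants, were fit to one- or two-exponential decays for kobs, and weighted Michaelis–Menten fits gave kcat and KM.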", "units": {"KM": "µM"}, "values": [
      {"variant": "AUAAAAGCGCCAGAACUACAGAAAUGUAGAUGACGAGGAGGAGGUUUAUCGAAUUUUCGGCGGGUGCCUCCAAA", "KM": "1670 ± 240"},
      {"variant": "AUAAAAGCGCCAGAACUACAGAAAUGUAGAUGACGAGGAGGAGGUUUAUCGAAUUUUCGGCGGAUGACUCCAAA", "KM": "2450 ± 1600"},
      {"variant": "AUAAAAGCGCCAGAACUACAGAAAUGUAGAUGACGAGGAGGAGGUUUAGCGAAUUUUCGGCGGAUGCCUUCAAA", "KM": "2220 ± 1600"},
      {"variant": "AUAAAAGCGCCAGAACUACAGAAAUGUAGCUUACGAGGAGGAGGUUUAUCGAAUUUUCGGCGGAUGCCUCCAAA", "KM": "3230 ± 1300"},
      {"variant": "AUAAAAGCGCCAGAACUACAGAAAUGUAGCUGACGAGGAGGAGGUUUAUCGAACUUUCGGCGGAUGCCUCCAAA", "KM": "1670 ± 1400"},
      {"variant": "AUAAAAGCGCCAGAACUACAGAAAUGUAGGUAACGAGGAGGAGGUUUAUCGAAUUUUCGGCGGAUGCCUCCAAA", "KM": "4720 ± 2300"},
      {"variant": "AUAAAAGCGCCAGAACUACAGAAAUGUAGGUGACGAGGAUGAGGUUUAUCGAAUUUUCGGCGGAUGCCUCCAAA", "KM": "1610 ± 350"},
      {"variant": "AUAAAAGCGCCAGAACUACAGAAAUGUAGGUGACGAGGAGGAGGUUUAUCGAAUUUUCUGCGGAUGCCUCCAAA", "KM": "933 ± 900"},
      {"variant": "AUAAAAGCGCCAGAACUACAGAAAUGUAGGUGACGAGGAGGAGGUUUAUCGAAUUCUCGGCGGAUGCCUCCAAA", "KM": "2090 ± 1100"},
      {"variant": "AUAAAAGCGCCAGAACUACAGAAAUGUAGUAGACGAGGAGGAGGUUUAUAGAAUUUUCGGCGGAUGCCUCCAAA", "KM": "605 ± 190"},
      {"variant": "AUAAAAGCGCCAGAACUACAGAAAUGUAGUAGACGAGGAGGAGGUUUAUCGAAUUUUCGGCGGAUGCCUUCAAA", "KM": "2180 ± 1300"},
      {"variant": "AUAAAAGCGCCAGAACUACAGAAAUGUAGUAGACGAAGAGGAGGUUUAUCGAAUUUUCGGCGGAUGCCUCCAAA", "KM": "1450 ± 840"},
      {"variant": "AUAAAAGCGCCAGAACUACAGAAAUGUAGUAGACGAGGAGAAGGUUUAUCGAAUUUUCGGCGGAUGCCUCCAAA", "KM": "1840 ± 1400"},
      {"variant": "AUAAAAGCGCCAGAACUACAGAAAUGUAGUCGACGAGGAGGAGGUUUAUCGUAUUUUCGGCGUAUGCCGCCAAA", "KM": "31 ± 28"},
      {"variant": "AUAAAAGCGCCAGAACUACAGAAAUGUAGUCGACGAGGAGGAGGUUUAUCGAAUUUUCGGCGGGUGCCUCCAAA", "KM": "3920 ± 2100"},
      {"variant": "AUAAAAGCGCCAGAACUACAGAAAUGUAGUCGACGAGGAGGAGGCUUAUCGAAUUUUCGGCGGAUGCCUCCAAA", "KM": "4690 ± 1600"},
      {"variant": "AUAAAAGCGCCAGAACUACAGAAAUGUAGUCGACGAGGAGGAGGUUUAUCGAACUUUCGGCGGAUGCCUCCAAA", "KM": "3580 ± 1800"},
      {"variant": "AUAAAAGCGCCAGAACUACAGAAAUGUAGUGGACGAGGAGGUGGUUUAUCGAAUUUUCGGCGGAUGCCUCCAAA", "KM": "2480 ± 1800"},
      {"variant": "AUAAAAGCGCCAGAACUACAGAAAUGUAGUGGACGAGGAGGAGGUUUAUUGAAUUUUCGGCGGAUGCCUCCAAA", "KM": "93.6 ± 52"},
      {"variant": "AUAAAAGCGCCAGAACUACAGAAAUGUAGUGGACGAGGAGGAGGUAUAUCGAAUUUUCGGCGGAUGCCUCCAAA", "KM": "991 ± 620"},
      {"variant": "AUAAAAGCGCCAGAACUACAGAAAUGUAGUGGACGAGGAGGAGGUUUAUCGAAUAUUCGGCGGAUGCCUCCAAA", "KM": "556 ± 400"},
      {"variant": "AUAAAAGCGCCAGAACUACAGAAAUGUAGUGGACGAGGAGGAGGUUUAUCGAAUUGUCGGCGGAUGUCUCCAAA", "KM": "2910 ± 800"},
      {"variant": "AUAAAAGCGCCAGAACUACAGAAAUGUAGUGGACGAGGAGGAGGUUUAUCGAAUUUUCGGCGGACGCCUCCAAA", "KM": "3350 ± 2200"},
      {"variant": "AUAAAAGCGCCAGAACUACAGAAAUGUAGUUACCGAGGAGGAGGUUUAUCGAAUUUUCGGCGGAUGCCUGCAAA", "KM": "52.7 ± 51"},
      {"variant": "AUAAAAGCGCCAGAACUACAGAAAUGUAGUUAACGAGGAGGAGGUUUAUCGCAUUUUCGGCGGAUGCCUCCAAA", "KM": "128 ± 28"},
      {"variant": "AUAAAAGCGCCAGAACUACAGAAAUGUAGUUAACGAGGAGGAGGUUUAUCGAAUUUUCGGCGGAUGCCUGCAAA", "KM": "314 ± 180"},
      {"variant": "AUAAAAGCGCCAGAACUACAGAAAUGUAGUUAACGAGGAGUAGGUUUAUCGAAUUUUCGGCGGAUGCCUCCAAA", "KM": "7790 ± 4000"},
      {"variant": "AUAAAAGCGCCAGAACUACAGAAAUGUAGUUAACGAGGAGGAGGUUUAUCGAAUUUUCGGCGGAUUCCUCCAAA", "KM": "4000 ± 2500"}
    ]},
    {"variants_of": "B1", "test": "self-cleavage kobs at 640 uM GlcN6P; higher = faster cleavage; RNA array", "conditions": "with glucosamine-6-phosphate", "outline": "as §1", "units": {"self-cleavage kobs at 640 uM GlcN6P": "s⁻¹"}, "values": [
      {"variant": "AUAAAAGCGCCAGAACUACAGAAAUGUAGAUGACGAGGAGGAGGUUUAGCGAAUUUUCGGCGGAUGCCUUCAAA", "self-cleavage kobs at 640 uM GlcN6P": "1.87e-05 ± 1.4e-05"},
      {"variant": "AUAAAAGCGCCAGAACUACAGAAAUGUAGUGGACGAGGAGGUGGUUUAUCGAAUUUUCGGCGGAUGCCUCCAAA", "self-cleavage kobs at 640 uM GlcN6P": "2.26e-05 ± 1.8e-05"},
      {"variant": "AUAAAAGCGCCAGAACUACAGAAAUGUAGUGGACGAGGAGGAGGUUUAUUGAAUUUUCGGCGGAUGCCUCCAAA", "self-cleavage kobs at 640 uM GlcN6P": "1.88e-05 ± 1.6e-05"}
    ]},
    {"variants_of": "B1", "test": "self-cleavage kobs at 160 uM GlcN6P; higher = faster cleavage; RNA array", "conditions": "with glucosamine-6-phosphate", "outline": "as §1", "units": {"self-cleavage kobs at 160 uM GlcN6P": "s⁻¹"}, "values": [
      {"variant": "AUAAAAGCGCCAGAACUACAGAAAUGUAGAUGACGAGGAGGAGGUUUAGCGAAUUUUCGGCGGAUGCCUUCAAA", "self-cleavage kobs at 160 uM GlcN6P": "2.28e-05 ± 1.7e-05"},
      {"variant": "AUAAAAGCGCCAGAACUACAGAAAUGUAGUCGACGAGGAGGAGGCUUAUCGAAUUUUCGGCGGAUGCCUCCAAA", "self-cleavage kobs at 160 uM GlcN6P": "2.94e-05 ± 2e-05"},
      {"variant": "AUAAAAGCGCCAGAACUACAGAAAUGUAGUUAACGAGGAGUAGGUUUAUCGAAUUUUCGGCGGAUGCCUCCAAA", "self-cleavage kobs at 160 uM GlcN6P": "2e-05 ± 1.1e-05"}
    ]},
    {"variants_of": "B1", "test": "self-cleavage kobs at 2500 uM GlcN6P; higher = faster cleavage; RNA array", "conditions": "with glucosamine-6-phosphate", "outline": "as §1", "units": {"self-cleavage kobs at 2500 uM GlcN6P": "s⁻¹"}, "values": [
      {"variant": "AUAAAAGCGCCAGAACUACAGAAAUGUAGUGGACGAGGAGGAGGUUUAUUGAAUUUUCGGCGGAUGCCUCCAAA", "self-cleavage kobs at 2500 uM GlcN6P": "2.27e-05 ± 1.2e-05"}
    ]},
    {"variants_of": "B1", "test": "self-cleavage kobs at 10000 uM GlcN6P; higher = faster cleavage; RNA array", "conditions": "with glucosamine-6-phosphate", "outline": "as §1", "units": {"self-cleavage kobs at 10000 uM GlcN6P": "s⁻¹"}, "values": [
      {"variant": "AUAAAAGCGCCAGAACUACAGAAAUGUAGUGGACGAGGAGGAGGUUUAUUGAAUUUUCGGCGGAUGCCUCCAAA", "self-cleavage kobs at 10000 uM GlcN6P": "1.96e-05 ± 1.7e-05"}
    ]},
    {"variants_of": "B1", "test": "self-cleavage kobs at 40 uM GlcN6P; higher = faster cleavage; RNA array", "conditions": "with glucosamine-6-phosphate", "outline": "as §1", "units": {"self-cleavage kobs at 40 uM GlcN6P": "s⁻¹"}, "values": [
      {"variant": "AUAAAAGCGCCAGAACUACAGAAAUGUAGUGGACGAGGAGGAGGUUUAUCGAAUUGUCGGCGGAUGUCUCCAAA", "self-cleavage kobs at 40 uM GlcN6P": "1.32e-05 ± 1e-05"}
    ]}
  ]
}
